Data published in patent US20170044150A1, “IDENTIFICATION OF COMPOUNDS WHICH INHIBIT ATG8-ATG3 PROTEIN-PROTEIN INTERACTION AND THEIR USE AS ANTIPARASITICAL AGENTS” (THE JOHNS HOPKINS UNIVERSITY, priority 2014, published 2017).
Some entries share one result that the patent states for a list of compounds.

Amino acid sequences for entries named in this document (tags omitted).
UniProt Q8IJK2, whole entry C32I/C119S/C122S: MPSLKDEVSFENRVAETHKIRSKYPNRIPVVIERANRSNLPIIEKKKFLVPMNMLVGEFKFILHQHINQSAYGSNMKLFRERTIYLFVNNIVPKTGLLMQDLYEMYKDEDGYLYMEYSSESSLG

Target: PfAtg8-PfAtg3 interaction (Plasmodium falciparum, UniProt Q8IJK2)
Test: not given
Assay type: binding, P. falciparum
Details: dose-dependent studies

SMILES | dose dependence of inhibition in SPR
Cc1ccc(-c2cc3c(SCC(=O)Nc4cc(C(F)(F)F)ccc4Cl)nccn3n2)cc1 [Compound 4, N-[2-chloro-5-(trifluoromethyl)phenyl]-2-[2-(4-methylphenyl)pyrazolo[1,5-a]pyrazin-4-yl]sulfanylacetamide] | constant level of inhibition independent of concentration
CN(C)c1ccc(N2C(N)=NC(N)=NC2(C)C)cc1 [Compound 5, 1-[4-(dimethylamino)phenyl]-6,6-dimethyl-1,3,5-triazine-2,4-diamine] | constant level of inhibition independent of concentration
Brc1ccc(Nc2nc3ccccc3nc2Nc2ccc(Br)cc2)cc1 [Compound 6, 2-N,3-N-bis(4-bromophenyl)quinoxaline-2,3-diamine] | constant level of inhibition independent of concentration

Target: PfAtg8^CM (Plasmodium falciparum, UniProt Q8IJK2)
Test: Thermal shift assay
Details: 100 μM compound

SMILES | effect on melting temperature (Tm) of PfAtg8^CM
Cc1ccc(Nc2nc(-c3ccccn3)cs2)cc1 [Compound 1, N-(4-methylphenyl)-4-pyridin-2-yl-1,3-thiazol-2-amine] | None of the compounds significantly affected the melting temperature
O=C(Nc1nc(-c2ccccn2)cs1)c1ccccc1Br [Compound 3, 2-bromo-N-(4-pyridin-2-yl-1,3-thiazol-2-yl)benzamide] | None of the compounds significantly affected the melting temperature
CSc1ccccc1C(=O)Nc1nc(-c2ccccn2)cs1 [Compound 2, 2-methylsulfanyl-N-(4-pyridin-2-yl-1,3-thiazol-2-yl)benzamide] | None of the compounds significantly affected the melting temperature
